# Data taken from PubChem BioAssay AID445 (National Center for Advancing Translational Sciences (NCATS), 2006).
# This is one part of the list. The main result of the screen is listed elsewhere. These columns were measured beside it and carry no call. Compounds called inactive in the main read-out are mostly missing here. Words in brackets tell the shape of the fitted curve; partial curves, single points and poor fits give uncertain potencies. Where a SMILES comes first, the peptide text is derived from it. [ ]: non-standard residue; d: D form. The star is where a group is joined. Hyp = O=C(O)[CH]1C[CH](O)CN1; Cbz = O=C(OCc1ccccc1)*; OBn = c1ccc(CO*)cc1
# Assay: IkB Signaling
# Conditions: ABC-DLBCL IkBa-CBG/CBR dual luciferase ratio (green luciferase fused to IkBa over red control in OCI-Ly3 lymphoma cells), 4 h
# In short: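 In this assay, an IκBα–CBG68 fusion accumulates when IKK-driven degradation is blocked; native CBR normalizes for cell number. OCI-Ly3 cells were treated 4 h with compound and doxycycline, then green and red light read after Chroma-Glo addition.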
# [1] = measured here: control luc red channel unless noted
# [2] = measured here: IkB-luc green channel
# [3] = measured here: control luc red channel
structure (smiles),measurement,setting,value
COc1ccccc1OCCn1cc(C(=O)c2cccs2)c2ccccc21,AC50,[1],"10 µM [falling, partial curve]"
O=C(CSc1nnc(-c2cnccn2)n1Cc1ccco1)c1ccc(Cl)cc1,AC50,[1],"7.94 µM [falling, partial curve]"
CCOC(=O)N1CCN(C(=O)CN(c2cccc(Cl)c2C)S(=O)(=O)c2ccc(C)cc2)CC1,AC50,[1],"25.1 µM [falling, partial curve, poor fit]"
COc1ccccc1-c1nc(-c2ccc(Br)o2)no1,AC50,[1],"0.501 µM [falling, partial curve]"
Cc1cccc(-n2c(SCC(N)=O)nc3c(oc4ccccc43)c2=O)c1,AC50,[1],"2.51 µM [rising, partial curve]"
Cc1c(Cl)ccc2sc(N3CCN(C(=O)c4ccco4)CC3)nc12,AC50,[1],"25.1 µM [falling, single point]"
OC[C@H](S)CS,AC50,[2],"3.98 µM [rising, partial curve]"
same,AC50,[3],"3.16 µM [falling, partial curve]"
COc1ccccc1CNc1ccc(-c2nc(C(C)C)no2)cc1[N+](=O)[O-],AC50,[1],"31.6 µM [falling, single point]"
CCOc1ccc(CNC(=O)c2cc3oc4ccccc4c3n2C)cc1,AC50,[1],"0.126 µM [falling, full curve]"
Cc1ccc(C)c(NC(=O)Cn2cc(C(=O)c3ccncc3)c(=O)c3cc(F)ccc32)c1,AC50,[1],"1.58 µM [falling, full curve]"
CCN(CCNC(=O)CN1CCN(Cc2ccc(Cl)cc2)C1=O)c1ccccc1,AC50,[1],"6.31 µM [falling, partial curve]"
Cc1cc(C)c2c(CC(=O)N(Cc3ccc(N(C)C)cc3)Cc3ccco3)coc2c1,AC50,[1],"20 µM [falling, partial curve]"
O=C(O)c1ccc(CSc2nc3ccccc3o2)cc1,AC50,[1],"7.94 µM [falling, partial curve]"
O=C(CSc1nc2c(c(=O)[nH]1)CCC2)Nc1ccccc1F,AC50,[1],"31.6 µM [falling, single point]"
CN(C)c1ccc(CNc2nc(-c3ccco3)nn2S(=O)(=O)c2ccc3ccccc3c2)cc1,AC50,[1],"3.98 µM [falling, full curve]"
Cc1ccc(C(=O)Nc2ccc(Cl)c(-c3nc4ncccc4o3)c2)c(C)c1,AC50,[1],"15.8 µM [falling, partial curve]"
Cc1ccccc1OCc1ccc(-c2nc(C#N)c(NCCCN(C)C)o2)o1,AC50,[1],"20 µM [falling, single point]"
O=C(Nc1ccc(F)cc1)[C@H](Cc1ccccc1)N1Cc2ccccc2C1=O,AC50,[1],"25.1 µM [falling, single point]"
CCCCCn1c(CN2CCN(c3cccc(Cl)c3)CC2)nc2c1c(=O)[nH]c(=O)n2C,AC50,[1],"20 µM [falling, partial curve]"
CC(C)CCOc1ccc(C(=O)Nc2sc3c(c2C#N)CCCCC3)cc1,AC50,[1],"0.0398 µM [rising, full curve, poor fit]"
Cn1nnnc1SCCCNCc1cccc(OCc2ccc(Cl)cc2)c1,AC50,[1],"10 µM [falling, single point]"
CCOC(=O)C1C(C)N=C2SCC(=O)N2C1c1cccc(Br)c1 (stereo not given),AC50,[1],"15.8 µM [falling, partial curve, poor fit]"
Cc1c(Cl)cccc1-n1ncc(C(=O)Nc2ccc3c(c2)OCCO3)c1C1CCN(C(=O)OC(C)(C)C)CC1,AC50,[1],"39.8 µM [falling, single point]"
Cc1ccc2cc3cc(C(=O)Nc4ccc(F)cc4Cl)oc3nc2c1,AC50,[1],"25.1 µM [rising, single point]"
Cc1cc(C)cc(NC(=O)c2cc(S(=O)(=O)N3CCCCCC3)cn2C)c1,AC50,[1],"12.6 µM [falling, partial curve]"
Cn1c(SCc2ccc(F)cc2)nc2ccc(C(=O)NCc3ccc(F)cc3)cc21,AC50,[1],"7.94 µM [falling, full curve, poor fit]"
Cc1ccc(-n2nc3c(N4CCC(C(=O)NC(C)C)CC4)nnc(C)c3c2C)cc1,AC50,[1],"1.58 µM [falling, full curve, poor fit]"
COc1ccc2cc(C(=O)NCc3ccco3)c(=Nc3ccc(C(=O)O)cc3)oc2c1,AC50,[1],"0.0316 µM [falling, full curve]"
CCC1CN(C(=O)N2CCC(C(=O)NCc3ccc(OC)cc3OC)CC2)c2cc(C)ccc2O1 (stereo not given),AC50,[1],"1.26 µM [falling, partial curve]"
O=C(CC(Nc1ccccc1)C(=O)O)c1ccccc1 (stereo not given),AC50,[1],"7.94 µM [falling, partial curve]"
Cc1cc(C)c2oc(C(=O)Nc3sc4c(c3C(=O)NCc3ccco3)CCC4)cc(=O)c2c1,AC50,[1],"10 µM [falling, partial curve]"
Cc1ccc(C)c(CN2C(=O)c3ccccc3S(=O)(=O)c3ccc(C(=O)Nc4ccccc4C(F)(F)F)cc32)c1,AC50,[1],"10 µM [falling, partial curve]"
Cc1ccccc1CNC(=O)C1CCN(c2nnc(C)c3c(C)n(-c4ccccc4)nc23)CC1,AC50,[1],"0.0398 µM [rising, full curve]"
CCn1c(=O)cc(SCC(=O)Nc2ccc3c(c2)OCO3)c2ccccc21,AC50,[1],"12.6 µM [falling, partial curve]"
CCc1ccc(-c2nc3ccc(Br)cc3c(C(=O)O)c2C)s1,AC50,[1],"39.8 µM [falling, single point]"
COC(=O)c1ccc(NC(=O)c2c(NCc3ccc(C)o3)sc3c2CCCC3)cc1,AC50,[1],"12.6 µM [falling, partial curve]"
CC(NC(=O)CNC(=O)OCc1ccccc1)C(=O)N1CC(O)CC1C(=O)OCc1ccccc1 (stereo not drawn) (Cbz-Gly-Ala-[Hyp]-OBn; configuration not given here),AC50,[1],"31.6 µM [falling, single point]"
CCn1c(C(=O)NCc2cccc(Br)c2)cc2oc3ccccc3c21,AC50,[1],"25.1 µM [falling, single point]"
CCCC(=O)N1c2ncnn2C2(CCCCC2)[C@@H]2CCCC[C@@H]21,AC50,[1],"50.1 µM [falling, partial curve, poor fit]"
COc1ccc(N2CCN(C(=O)Cn3cnc4nc5c(cc4c3=O)CCCC5)CC2)cc1,AC50,[1],"1.58 µM [falling, full curve]"
O=C(Nc1ccc(Cc2ccncc2)cc1)c1ccc(S(=O)(=O)N2CCOCC2)cc1,AC50,[1],"10 µM [falling, partial curve]"
COc1ccc(OC)c(NC(=O)CSc2c3c(nc4ccccc24)CCCC3)c1,AC50,[1],"10 µM [falling, partial curve]"
CCOC(=O)N/C(N)=N/c1nc2ccccc2s1,AC50,[2],"31.6 µM [rising, partial curve]"
same,AC50,[3],"12.6 µM [falling, partial curve]"
COc1ccc(CCN2C(=O)N(c3ccc(F)cc3)C(=O)C2CC(=O)Nc2ccc(F)c(F)c2)cc1 (stereo not given),AC50,[1],"25.1 µM [falling, single point]"
C=CCn1c(SCC(=O)Nc2ccc3c(c2)OCO3)nnc1-c1ccccc1O,AC50,[1],"25.1 µM [falling, partial curve]"
O=C(O)CCCC(=O)Nc1nc(-c2ccc(F)cc2)cs1,AC50,[1],"0.251 µM [falling, full curve]"
COCc1nnc(NC(=O)CCC2CCCCC2)s1,AC50,[1],"0.631 µM [rising, full curve, poor fit]"
O=S(=O)(NC1CCCC1)c1ccc(S(=O)(=O)N2CCc3ccccc32)cc1,AC50,[1],"31.6 µM [falling, partial curve]"
Cc1sc2c(c1C)c(=O)n(-c1cccc(C(F)(F)F)c1)c(=O)n2Cc1ccccc1C#N,AC50,[1],"0.1 µM [rising, partial curve]"
CCCCn1c(-c2ccc(C)cc2)c(C)n2c3c(=O)n(C)c(=O)n(C)c3nc12,AC50,[1],"12.6 µM [falling, partial curve]"
Cc1ccc(OCCCCn2c(CCNC(=O)C(C)(C)C)nc3ccccc32)cc1,AC50,[1],"15.8 µM [falling, partial curve]"
O=C(CCC1CCCCC1)Nc1ccccc1O,AC50,[1],"7.94 µM [falling, partial curve]"
Cc1cc(C)cc(N(CC(=O)Nc2cccc(C)n2)S(=O)(=O)c2c(C)noc2C)c1,AC50,[1],"10 µM [falling, partial curve]"
Clc1cccc(-c2nnc(SCc3nc4ccccc4[nH]3)n2Cc2ccco2)c1,AC50,[1],"25.1 µM [falling, partial curve]"
O=C(NC1CCCC1)c1ccc2c(c1)N(Cc1ccccc1F)C(=O)c1ccccc1S2,AC50,[2],"3.16 µM [rising, single point]"
same,AC50,[3],"3.98 µM [rising, partial curve, poor fit]"
CC1=C(C(=O)OCc2ccc(C)cc2)C(c2ccccc2Cl)CC(=O)N1 (stereo not given),AC50,[1],"39.8 µM [rising, single point] [measured here: IkB-luc green channel]"
Cc1cccc(OCC(=O)Nc2ccc3c(c2)nc(CCNC(=O)c2ccco2)n3C)c1,AC50,[1],"12.6 µM [falling, partial curve]"
Cc1c(NC(=O)Nc2cccc(Cl)c2)c(=O)n(-c2ccccc2)n1C,AC50,[1],"39.8 µM [rising, single point]"
c1ccc(COn2nnc3ccccc32)c(COn2nnc3ccccc32)c1,AC50,[1],"12.6 µM [falling, partial curve]"
COC(=O)c1c(C)sc(-c2c(-c3cccc(Cl)c3)[nH]c3c2c(=O)[nH]c(=O)n3C)c1O,AC50,[1],"20 µM [falling, partial curve]"
COc1cccc(C(=O)NCC(=O)N2CCC(C)CC2)c1,AC50,[1],"12.6 µM [falling, partial curve]"
COc1ccc(CCNC(=O)CCc2c(C)nc3c(c(C)nn3-c3ccccc3)c2C)c(OC)c1,AC50,[1],"5.01 µM [falling, full curve]"

# Looked up one by one from above:
structure (smiles),measurement,setting,value
Cc1c(Cl)ccc2sc(N3CCN(C(=O)c4ccco4)CC3)nc12,AC50,[1],"25.1 µM [falling, single point]"
CC(C)CCOc1ccc(C(=O)Nc2sc3c(c2C#N)CCCCC3)cc1,AC50,[1],"0.0398 µM [rising, full curve, poor fit]"
CCOc1ccc(CNC(=O)c2cc3oc4ccccc4c3n2C)cc1,AC50,[1],"0.126 µM [falling, full curve]"
CCn1c(=O)cc(SCC(=O)Nc2ccc3c(c2)OCO3)c2ccccc21,AC50,[1],"12.6 µM [falling, partial curve]"
